PubChem BioAssay AID1259425 – University of Nebraska Medical Center, 2018

- Aim: 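Compare each knockdown with KSR1 silencing using changes in marker transcripts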 (primary screen)
- System: HCT116 human colon cancer cells
- Reagent: siRNA pool against human genes, 50 nM siRNA
- Measurement: 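mRNA of six signature genes measured together by branched-DNA assay after 50 nM siRNA pool, blank removed, divided by geometric mean of two housekeeping genes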
- Scale: BNIP3L mRNA: higher = more BNIP3L transcript after knockdown; NDRG1 mRNA: higher = more NDRG1 transcript after knockdown; BNIP3 mRNA: higher = more BNIP3 transcript after knockdown
This is one part, drawn at random, of about 14,000 deposited reagents. Further read-outs or replicates are left out here. No sequences are given here. The record does not give: the time to read-out.

The opening 7 entries as a preview:
gene symbol,"BNIP3L mRNA, set 1","NDRG1 mRNA, set 1","BNIP3 mRNA, set 1"
ATP5MC1,0.12,0.398,0.314
SELENBP1,0.084,0.155,0.295
ATP6V1A,0.289,0.111,0.642
AKR1D1,0.386,0.23,0.404
RPL26,0.203,0.585,0.528
ERMN,0.233,0.172,0.3
ZNF329,0.12,0.215,0.287

Main list, from the first entry:
gene symbol,"BNIP3L mRNA, set 1","NDRG1 mRNA, set 1","BNIP3 mRNA, set 1"
ATP5MC1,0.12,0.398,0.314
SELENBP1,0.084,0.155,0.295
ATP6V1A,0.289,0.111,0.642
AKR1D1,0.386,0.23,0.404
RPL26,0.203,0.585,0.528
ERMN,0.233,0.172,0.3
ZNF329,0.12,0.215,0.287
PTPRT,0.1,0.0688,0.257
GNRHR,0.231,0.28,0.499
SCAP,0.0746,0.0815,0.419
NMRAL1,0.24,0.44,0.501
PPP3R2,0.0541,0.369,0.282
USE1,0.283,0.584,0.353
CCR8,0.116,0.108,0.198
CBX3,0.0943,0.113,0.316
NFATC4,0.198,0.233,0.458
PLAGL2,0.194,0.602,0.256
PALS1,0.0739,0.0885,0.303
LDLRAP1,0.11,0.0558,0.333
PVT1,0.221,0.064,0.379
ADAMTSL1,0.124,0.0832,0.307
MT-ND2,0.112,0.157,0.311
STAT1,0.0732,0.097,0.283
DLGAP3,0.144,0.12,0.268
TAF4B,0.103,0.0908,0.239
TBC1D9,0.147,0.211,0.582
PCDH8,0.0879,0.0724,0.0823
INCENP,0.085,0.355,0.164
RLF,0.112,0.205,0.291
NCF1C,0.126,0.356,0.362
COX16,0.0978,0.208,0.292
KCNJ11,0.122,0.0795,0.354
ZNF317,0.153,0.339,0.406
HLA-B,0.104,0.396,0.359
NR3C2,0.0448,0.207,0.224
MRPS26,0.0432,0.308,0.261
MXI1,0.157,0.0561,0.32
UNG,0.186,0.0169,0.364
JTB,0.0512,0.151,0.345
PACC1,0.0584,0.126,0.212
ASB1,0.148,0.755,0.447
CPLANE2,0.0603,0.232,0.435
RUFY1,0.245,0.522,0.606
TAF9B,0.0968,0.12,0.203
LINC02249,0.105,0.108,0.323
GMFB,0.0501,0.211,0.295
CRLF1,0.159,0.705,0.243
SOS1,0.0763,0.784,0.302
VDR,0.0746,0.0796,0.4
ENTR1,0.108,0.499,0.32
ZMYM3,0.111,0.215,0.323
ADAMTS18,0.0661,0.132,0.407
LHX4,0.099,0.113,0.332
H4C1,0.0844,0.196,0.238
PSMD12,0.306,1.46,0.416
MYO5A,0.0571,0.0537,0.171
FBP2,0.122,0.0787,0.161
NUP85,0.0988,0.103,0.274
RNF40,0.107,0.158,0.418
MCF2L,0.0333,0.438,0.304
NOP2,0.176,0.519,0.26
PRMT5,0.11,0.477,0.244
RHOF,0.0859,0.385,0.32
